Source: publication PMC5824423
No constants are given. Whether binding was seen depends on the method and setting. Binding seen in cells or lysates may run through a third protein. Some binding calls cover weakened binding; strength is not graded here. Each block holds one binder with its values, some of them ahead of it.

What was measured:
[1] = biological target: T1, four and a half LIM domain protein 2 (FHL2) (rat (endogenous in NRK-52E)) (UniProt O35115); assay: co-IP; nuclear protein extracted from NRK-52E cells with or without TGF-β1 treatment; IP with anti-FHL2, blot for β-catenin
T1 sequence: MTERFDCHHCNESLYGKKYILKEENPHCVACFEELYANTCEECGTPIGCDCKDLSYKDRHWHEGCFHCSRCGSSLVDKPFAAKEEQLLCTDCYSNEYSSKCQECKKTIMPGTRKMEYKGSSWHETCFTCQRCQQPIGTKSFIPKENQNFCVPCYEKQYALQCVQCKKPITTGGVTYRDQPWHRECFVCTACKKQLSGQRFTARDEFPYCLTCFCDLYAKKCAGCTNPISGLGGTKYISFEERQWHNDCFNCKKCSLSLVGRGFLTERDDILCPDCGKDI

[2] = biological target: T1, four and a half LIM domain protein 2 (FHL2) (rat (endogenous in NRK-52E)); assay: co-IP; whole cell lysates of NRK-52E cells with or without TGF-β1 treatment; nondenaturing lysis buffer (1% Triton X-100, 0.01 M Tris-HCl pH 8.0, 0.14 M NaCl); IP with anti-FHL2 or anti-β-catenin at 4°C overnight, protein A/G Plus-agarose; blot for the other protein
[3] = biological target: T2, β-catenin (rat (endogenous in NRK-52E)) (UniProt Q9WU82); assay: as above
T2 sequence: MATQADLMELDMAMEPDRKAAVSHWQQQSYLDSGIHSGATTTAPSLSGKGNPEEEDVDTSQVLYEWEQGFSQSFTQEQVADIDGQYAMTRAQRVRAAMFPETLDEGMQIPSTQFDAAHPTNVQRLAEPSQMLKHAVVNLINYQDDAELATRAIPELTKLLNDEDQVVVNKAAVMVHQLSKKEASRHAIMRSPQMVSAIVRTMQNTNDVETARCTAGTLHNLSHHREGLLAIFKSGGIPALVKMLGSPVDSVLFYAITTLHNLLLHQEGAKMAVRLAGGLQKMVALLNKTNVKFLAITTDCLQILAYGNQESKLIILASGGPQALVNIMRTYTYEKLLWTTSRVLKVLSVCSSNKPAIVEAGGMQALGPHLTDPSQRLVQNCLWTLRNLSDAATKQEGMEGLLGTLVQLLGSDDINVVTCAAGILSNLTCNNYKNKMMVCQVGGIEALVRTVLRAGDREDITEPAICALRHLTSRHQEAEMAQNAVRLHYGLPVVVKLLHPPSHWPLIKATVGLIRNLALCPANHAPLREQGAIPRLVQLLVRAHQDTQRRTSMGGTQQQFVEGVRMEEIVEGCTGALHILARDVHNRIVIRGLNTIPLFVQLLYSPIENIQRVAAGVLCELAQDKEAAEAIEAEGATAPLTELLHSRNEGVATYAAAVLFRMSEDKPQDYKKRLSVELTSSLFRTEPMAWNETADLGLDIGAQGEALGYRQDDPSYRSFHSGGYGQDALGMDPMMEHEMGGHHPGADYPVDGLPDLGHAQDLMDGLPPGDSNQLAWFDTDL

binding [1]: binds
binding [2]: binds
B1: β-catenin (protein, UniProt Q9WU82 1-781)
chain: T2 sequence

binding [3]: binds
B2: four and a half LIM domain protein 2 (FHL2) (protein, UniProt O35115 1-279)
chain: T1 sequence
